Assay results published in the supplement of paper PMC11006884.
The entries are a selection whose mix differs from that of the whole data set. This is a noisy data set.

Each target was assayed with COC(=O)/C=C/c1ccccc1 [methyl cinnamate] (assay: log2 ratio of iodoacetamide-alkyne labeling of the cysteine site, DMSO over compound (competition); higher = stronger covalent engagement of the cysteine by the compound, active = 1 or more). Conditions: 500 µM; treatment time 1 h; system: HEK293T cell lysate.
Method in brief: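 Reporter intensities give each cysteine's log2 competition ratio as the mean of control channels over the mean of compound channels. The samples were HEK293T lysate (2 mg/mL) given vehicle or electrophile (500 µM, 1 h, ambient temperature), then iodoacetamide alkyne (1 h), followed by click coupling to sCIP-TMT reagents, pooling, trypsin digestion overnight at 37 °C, streptavidin enrichment, acid elution, Orbitrap Eclipse LC-MS/MS with FAIMS and FragPipe quantification. Duplicate channels and three replicates were run, and cysteines quantified in only one replicate were discarded.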

Target | log2 ratio of iodoacetamide-alkyne labeling
NSD1 C2508 (UniProt Q96L73) | inactive: 0.482
UniProt Q96JG6_C136 | inactive: 0.0399
TUBA1C C376 (UniProt Q9BQE3) | inactive: 0.211
UHRF1 C759 (UniProt Q96T88) | inactive: 0.0265
UniProt Q99590_C478 | inactive: 0.38
OSBPL9 C619 (UniProt Q96SU4) | inactive: 0.55
DOCK7 C1944 (UniProt Q96N67) | inactive: 0.233
NGLY1 C197 (UniProt Q96IV0) | inactive: 0.0285
UIMC1 C601 (UniProt Q96RL1) | inactive: 0.529
CRBN C188 (UniProt Q96SW2) | inactive: -0.17
SCYL1 C241 (UniProt Q96KG9) | inactive: 0.012
TUBA1C C347 (UniProt Q9BQE3) | inactive: 0.179
UHRF1 C512 (UniProt Q96T88) | inactive: 0.119
PURB C17 (UniProt Q96QR8) | inactive: 0.405
VAT1 C86 (UniProt Q99536) | inactive: 0.294
NUDCD1 C7 (UniProt Q96RS6) | inactive: -0.465
UniProt Q9BQ61_C165 | inactive: 0.55
MYBBP1A C1009 (UniProt Q9BQG0) | inactive: -0.146
MMS19 C331 (UniProt Q96T76) | inactive: -0.219
UniProt Q99590_C566 | inactive: 0.028
PIK3R4 C899 (UniProt Q99570) | inactive: 0.285
NCAPG C751 (UniProt Q9BPX3) | inactive: 0.601

An excerpt of these results, as tab-separated lines:
Target	log2 ratio of iodoacetamide-alkyne labeling
OSBPL9 C619 (UniProt Q96SU4)	inactive: 0.55
UIMC1 C601 (UniProt Q96RL1)	inactive: 0.529
NUDCD1 C7 (UniProt Q96RS6)	inactive: -0.465
MYBBP1A C1009 (UniProt Q9BQG0)	inactive: -0.146
